What all share (conditions): 10 µM; pre-incubation: 30-90 min
Assay [1] has as its system Danio rerio larvae (5 dpf, TLF). Put plainly: OMR-Perf (SSMD vs DMSO vehicle); higher = higher than vehicle (e.g. higher dark-flash O-bend response probability, or better optomotor performance).
Assay [2] shares this test system. Kind of assay: Prob-Test (SSMD vs DMSO vehicle); higher = higher than vehicle (e.g. higher dark-flash O-bend response probability, or better optomotor performance).
Assay [3] has the same test system. Kind of assay: Prob-Naive (SSMD vs DMSO vehicle); higher = higher than vehicle (e.g. higher dark-flash O-bend response probability, or better optomotor performance).
The test system is the same in assay [4]. Kind of assay: Prob-Train (SSMD vs DMSO vehicle); higher = higher than vehicle (e.g. higher dark-flash O-bend response probability, or better optomotor performance).

This is one part of the list. This data set is noisy: repeats of one test often differ as much as different tests do.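 Free-swimming zebrafish larvae were scored for O-bend response probability to dark flashes (naive: first five; training: remaining flashes of four 60-flash blocks; test: later 60-flash block) and for turning toward alternating leftward/rightward LED motion (OMR). Six treated larvae were compared with sixty 0.1% DMSO controls; |SSMD|≥2 defined a hit.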

In assay [1], `OCCN(CCO)c1nc(N2CCCCC2)c2nc(N(CCO)CCO)nc(N3CCCCC3)c2n1` [Dipyridamole] gave an OMR-Perf of -0.213. In addition, the Prob-Test in assay [2] is -0.196. The Prob-Naive in assay [3] was 0.302. In assay [4], the Prob-Train amounted to 0.0685.

Regarding `Cc1cc(Nc2cc(N3CCN(C)CC3)nc(Sc3ccc(NC(=O)C4CC4)cc3)n2)n[nH]1` [VX-680 (Tozasertib, MK-0457)], in assay [1], the OMR-Perf was -0.0534. Further, the Prob-Test in assay [2] was -0.38. In addition, the Prob-Naive in assay [3] amounted to 0.0475. Further, the Prob-Train in assay [4] was -0.482.

Turning to `COc1cc(Nc2c(C#N)cnc3cc(OCCCN4CCN(C)CC4)c(OC)cc23)c(Cl)cc1Cl` [Bosutinib (SKI-606)], in assay [1], the OMR-Perf was determined as 0.539. The same compound yielded a Prob-Test in assay [2] of -0.0888. Further, the Prob-Naive in assay [3] is -0.076. The compound also came in with a Prob-Train in assay [4] of 0.214.

Turning to `CC1=C(/C=C/C(C)=C\C=C\C(C)=C/C(=O)O)C(C)(C)CCC1` [Isotretinoin], the OMR-Perf in assay [1] came out at 0.322. The compound also gave a Prob-Test in assay [2] of 0.478. For the same compound, in assay [3], the Prob-Naive was 0.0184. Further, the Prob-Train in assay [4] came out at 0.272.

The compound `O=c1c2ccccc2nc2n1CCc1c-2[nH]c2ccccc12` [Rutaecarpine] returned an OMR-Perf in assay [1] of -0.599. The same compound displayed a Prob-Test in assay [2] of -0.311. In addition, the Prob-Naive in assay [3] turned out to be 0.146. In assay [4], the Prob-Train is -0.342.

With `COc1ccc2c(c1)c(CC(=O)OCC(=O)O)c(C)n2C(=O)c1ccc(Cl)cc1` [Acemetacin], the OMR-Perf in assay [1] was -0.203. This compound displayed a Prob-Test in assay [2] of 0.566. This compound also registered a Prob-Naive in assay [3] of 0.13. This compound also yielded a Prob-Train in assay [4] of -0.151.

In turn, `CC(=O)S[C@@H]1CC2=CC(=O)CC[C@]2(C)[C@@H]2CC[C@@]3(C)[C@@H](CC[C@]34CCC(=O)O4)[C@@H]21` [Spironolactone] came in with an OMR-Perf in assay [1] of -0.0892. In assay [2], the Prob-Test is -0.379. For the same compound, the Prob-Naive in assay [3] was -0.0273. This compound also displayed a Prob-Train in assay [4] of -0.306.

As to `O=C(CCCc1ccccc1)[O][Na]` [Sodium Phenylbutyrate], the OMR-Perf in assay [1] is 0.00818. The same compound came in with a Prob-Test in assay [2] of -0.295. This compound gave a Prob-Naive in assay [3] of 0. Also, the Prob-Train in assay [4] was 0.114.

For `Cn1cnc2c1c(=O)[nH]c(=O)n2C` [Theobromine], the OMR-Perf in assay [1] is -0.25. Further, the Prob-Test in assay [2] was -0.887. Also, in assay [3], the Prob-Naive was -0.247. In assay [4], this compound had a Prob-Train of -0.479.

`CS(=O)(=O)c1ccc(C(=O)Nc2ccc(Cl)c(-c3ccccn3)c2)c(Cl)c1` [Vismodegib (GDC-0449)]: the OMR-Perf in assay [1] was -0.513. The same compound had a Prob-Test in assay [2] of -0.0835. For the same compound, the Prob-Naive in assay [3] amounted to 0.153. The compound further showed a Prob-Train in assay [4] of -0.145.

As to `O=c1ncccn1[C@@H]1O[C@H](CO)[C@H](O)[C@@H]1O` [Zebularine], in assay [1], the OMR-Perf was -0.282. Moreover, the Prob-Test in assay [2] was found to be 0.14. Besides, in assay [3], the Prob-Naive was 0.446. The compound also displayed a Prob-Train in assay [4] of 0.22.

As for `CCCc1ncc(C[n+]2ccccc2C)c(N)n1.Cl.[Cl-]` [Amprolium HCl], the OMR-Perf in assay [1] turned out to be 0.3. Moreover, the Prob-Test in assay [2] worked out at 0.134. In assay [3], this compound yielded a Prob-Naive of 0.585. In assay [4], the Prob-Train worked out at 0.519.

In turn, `OC[C@@H](O)[C@@H](O)CO` [Erythritol] came in with an OMR-Perf in assay [1] of -0.103. Besides, in assay [2], the Prob-Test was -0.394. This compound also showed a Prob-Naive in assay [3] of -0.252. Besides, the Prob-Train in assay [4] was -0.139.

In turn, `C[C@@H]1O[C@@H](OC[C@@H]2O[C@@H](Oc3c(-c4ccc(OCCO)c(OCCO)c4)oc4cc(OCCO)cc(O)c4c3=O)[C@H](O)[C@@H](O)[C@@H]2O)[C@H](O)[C@H](O)[C@H]1O` [Troxerutin] had an OMR-Perf in assay [1] of -0.111. For the same compound, the Prob-Test in assay [2] was found to be 0.227. This compound also showed a Prob-Naive in assay [3] of -0.0925. Also, in assay [4], the Prob-Train was 0.0304.

As to `Cc1cc(C(=O)NOCCO)c(Nc2ccc(I)cc2F)n(C)c1=O`, in assay [1], the OMR-Perf is -0.482. The compound also yielded a Prob-Test in assay [2] of -1.56. Further, the Prob-Naive in assay [3] is -0.0535. Besides, the Prob-Train in assay [4] was -1.07.

Consider `CN1CCN(c2c(F)cc3c(=O)c(C(=O)O)cn4c3c2OCN4C)CC1` [Marbofloxacin], for which, in assay [1], the OMR-Perf was -0.662. In assay [2], this compound returned a Prob-Test of 0.273. The Prob-Naive in assay [3] is 0.0252. Besides, the Prob-Train in assay [4] amounted to 0.352.

Compound `NC(=O)c1cccc(-c2cccc(OC(=O)NC3CCCCC3)c2)c1` had an OMR-Perf in assay [1] of -0.366. For the same compound, the Prob-Test in assay [2] was -0.562. The compound further came in with a Prob-Naive in assay [3] of -0.487. This compound had a Prob-Train in assay [4] of -0.192.

Consider `CC(=O)Oc1ccccc1C(=O)O` [Aspirin], for which the OMR-Perf in assay [1] was 0.0153. For the same compound, the Prob-Test in assay [2] came out at 0.0487. The compound also returned a Prob-Naive in assay [3] of 0.464. This compound displayed a Prob-Train in assay [4] of 0.281.

`CCC1(c2ccccc2)C(=O)NCNC1=O` [Primidone] yielded an OMR-Perf in assay [1] of -0.672. Moreover, the Prob-Test in assay [2] was found to be 0.0651. In assay [3], the Prob-Naive came to 0.375. In assay [4], this compound came in with a Prob-Train of -0.0956.

`CN1CCN(c2ccc3nc(-c4c(N)c5c(F)cccc5[nH]c4=O)[nH]c3c2)CC1` [Dovitinib (TKI-258, CHIR-258)]: in assay [1], the OMR-Perf worked out at 0.182. The Prob-Test in assay [2] is -0.813. Moreover, the Prob-Naive in assay [3] was determined as 0.568. In assay [4], this compound gave a Prob-Train of 0.231.

Consider `COC(=O)Nc1nc2ccc(C(=O)c3ccc(F)cc3)cc2[nH]1` [Flubendazole], for which, in assay [1], the OMR-Perf is -0.0407. In assay [2], this compound came in with a Prob-Test of -0.132. This compound also yielded a Prob-Naive in assay [3] of 0.471. Also, the Prob-Train in assay [4] is -0.086.

In the case of `O=C(/C=C/c1ccc(O)c(O)c1)O[C@@H]1C[C@@](O)(C(=O)O)C[C@@H](O)[C@H]1O` [Chlorogenic Acid], the OMR-Perf in assay [1] is -0.649. In assay [2], this compound yielded a Prob-Test of -0.332. For the same compound, in assay [3], the Prob-Naive is -0.602. This compound registered a Prob-Train in assay [4] of -0.347.

In turn, `N[C@@H]1CCCC[C@H]1N.O=C([O-])C(=O)[O-].[Pt+2]` [Oxaliplatin] gave an OMR-Perf in assay [1] of 0.307. For the same compound, the Prob-Test in assay [2] was determined as 0.129. In assay [3], this compound yielded a Prob-Naive of -0.0954. The same compound returned a Prob-Train in assay [4] of -0.0145.

In turn, `Oc1ccc(OCc2ccccc2)cc1` [Monobenzone] had an OMR-Perf in assay [1] of -0.375. The compound further returned a Prob-Test in assay [2] of -1.08. For the same compound, the Prob-Naive in assay [3] is -0.585. Further, the Prob-Train in assay [4] is -0.774.

As for `Cl.Nc1c2c(nc3ccccc13)CCCC2` [Tacrine HCl], the OMR-Perf in assay [1] was 0.252. The same compound registered a Prob-Test in assay [2] of 0.294. The compound also registered a Prob-Naive in assay [3] of 0.457. Also, the Prob-Train in assay [4] turned out to be 0.437.
